The M2OR odorant receptor database
The list shows a part of the results. The calls were merged from several studies; some rest on single wells.

Chains of the proteins cited; added tags and fusions are not shown. A line that says so, or that is headed by a name, gives the form on record, which may keep a tag or linker.
O5AL1, as listed by the source: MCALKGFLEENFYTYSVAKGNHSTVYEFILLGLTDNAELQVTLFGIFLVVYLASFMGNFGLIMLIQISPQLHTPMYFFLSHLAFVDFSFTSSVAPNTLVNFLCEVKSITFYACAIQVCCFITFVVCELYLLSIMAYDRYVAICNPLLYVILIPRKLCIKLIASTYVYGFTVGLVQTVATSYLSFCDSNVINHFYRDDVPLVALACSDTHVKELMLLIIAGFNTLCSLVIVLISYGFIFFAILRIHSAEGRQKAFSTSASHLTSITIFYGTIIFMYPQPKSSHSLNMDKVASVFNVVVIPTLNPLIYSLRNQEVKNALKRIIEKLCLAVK

Key:
Settings in all cases: stereoisomer not certain
O52R1 = system: T1, O52R1
T1 sequence (whole entry): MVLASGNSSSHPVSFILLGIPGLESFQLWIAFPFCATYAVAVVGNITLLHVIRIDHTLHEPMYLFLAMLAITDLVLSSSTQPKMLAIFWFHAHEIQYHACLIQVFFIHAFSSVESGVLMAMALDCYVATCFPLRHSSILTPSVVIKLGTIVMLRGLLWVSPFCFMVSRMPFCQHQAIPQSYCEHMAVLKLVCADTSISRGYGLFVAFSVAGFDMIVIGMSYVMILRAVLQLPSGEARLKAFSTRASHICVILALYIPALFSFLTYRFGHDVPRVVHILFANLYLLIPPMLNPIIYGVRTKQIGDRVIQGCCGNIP
How it was run: (§1)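 Transient luciferase assays in mammalian cell lines were common, though methods varied by source. The values come from published papers and their supplementary material, with extra details from the original authors when needed. Responsive refers to a measured signal the original authors judged statistically different from baseline, and non-responsive (inactive) to the remainder.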

O52W1 = system: T2, O52W1
T2 sequence (whole entry): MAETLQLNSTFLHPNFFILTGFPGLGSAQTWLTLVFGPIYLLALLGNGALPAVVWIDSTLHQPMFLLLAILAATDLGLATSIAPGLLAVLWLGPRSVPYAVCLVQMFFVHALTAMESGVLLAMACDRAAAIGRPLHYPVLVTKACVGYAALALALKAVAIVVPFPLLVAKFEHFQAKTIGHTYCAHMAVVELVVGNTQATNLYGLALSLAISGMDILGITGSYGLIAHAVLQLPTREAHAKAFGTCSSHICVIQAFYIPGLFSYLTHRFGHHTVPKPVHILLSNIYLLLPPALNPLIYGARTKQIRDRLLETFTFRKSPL
How it was run: as §1

O56A3 = system: T3, O56A3
T3 sequence (whole entry): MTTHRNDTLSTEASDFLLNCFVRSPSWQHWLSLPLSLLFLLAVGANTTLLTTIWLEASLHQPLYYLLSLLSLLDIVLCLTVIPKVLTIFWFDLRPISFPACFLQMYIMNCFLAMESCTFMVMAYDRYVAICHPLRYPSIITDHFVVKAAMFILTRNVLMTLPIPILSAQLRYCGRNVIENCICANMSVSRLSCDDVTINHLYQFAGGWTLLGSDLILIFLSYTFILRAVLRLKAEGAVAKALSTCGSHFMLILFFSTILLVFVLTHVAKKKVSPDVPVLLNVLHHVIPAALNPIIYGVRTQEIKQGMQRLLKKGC
How it was run: as §1

O56B1 = system: T4, O56B1
T4 sequence (whole entry): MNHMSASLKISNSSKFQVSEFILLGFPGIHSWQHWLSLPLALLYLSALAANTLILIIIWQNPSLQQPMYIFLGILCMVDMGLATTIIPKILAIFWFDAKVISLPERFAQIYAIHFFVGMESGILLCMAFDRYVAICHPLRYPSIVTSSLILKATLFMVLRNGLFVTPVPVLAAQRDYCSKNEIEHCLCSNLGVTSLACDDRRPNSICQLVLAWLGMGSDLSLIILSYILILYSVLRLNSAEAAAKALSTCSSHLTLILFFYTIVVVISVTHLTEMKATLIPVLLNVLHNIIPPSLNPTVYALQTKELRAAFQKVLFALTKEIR
How it was run: as §1

O56B4 = system: T5, O56B4
T5 sequence (whole entry): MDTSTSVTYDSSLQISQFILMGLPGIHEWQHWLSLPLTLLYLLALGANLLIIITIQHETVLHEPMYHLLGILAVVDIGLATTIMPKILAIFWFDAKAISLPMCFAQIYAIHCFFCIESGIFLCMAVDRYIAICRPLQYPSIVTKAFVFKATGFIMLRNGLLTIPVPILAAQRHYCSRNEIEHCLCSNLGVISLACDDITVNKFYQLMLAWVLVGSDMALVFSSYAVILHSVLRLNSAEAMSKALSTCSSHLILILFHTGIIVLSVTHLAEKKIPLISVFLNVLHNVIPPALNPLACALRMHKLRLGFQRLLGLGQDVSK
How it was run: as §1

O5AC2 = system: T6, O5AC2
T6 sequence (whole entry): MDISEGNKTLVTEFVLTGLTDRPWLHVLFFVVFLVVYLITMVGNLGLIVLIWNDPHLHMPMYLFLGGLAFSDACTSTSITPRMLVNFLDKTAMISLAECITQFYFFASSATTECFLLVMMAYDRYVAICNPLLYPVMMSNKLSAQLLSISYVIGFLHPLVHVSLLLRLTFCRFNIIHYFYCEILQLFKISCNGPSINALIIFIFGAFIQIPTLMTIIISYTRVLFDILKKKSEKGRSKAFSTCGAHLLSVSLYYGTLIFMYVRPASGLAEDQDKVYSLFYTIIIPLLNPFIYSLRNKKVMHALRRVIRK
How it was run: as §1

O5AK2 = system: T7, O5AK2
T7 sequence (whole entry): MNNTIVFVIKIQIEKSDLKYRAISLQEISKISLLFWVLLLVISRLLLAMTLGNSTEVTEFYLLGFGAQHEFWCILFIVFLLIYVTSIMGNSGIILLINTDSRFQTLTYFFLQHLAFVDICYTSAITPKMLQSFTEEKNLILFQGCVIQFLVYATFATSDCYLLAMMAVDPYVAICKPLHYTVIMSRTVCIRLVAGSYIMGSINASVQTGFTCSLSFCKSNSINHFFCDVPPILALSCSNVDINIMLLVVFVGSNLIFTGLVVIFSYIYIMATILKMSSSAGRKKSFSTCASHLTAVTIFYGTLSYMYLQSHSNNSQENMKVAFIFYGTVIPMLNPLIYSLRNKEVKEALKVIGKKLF
How it was run: as §1

O5AK3 = system: T8, O5AK3
T8 sequence (whole entry): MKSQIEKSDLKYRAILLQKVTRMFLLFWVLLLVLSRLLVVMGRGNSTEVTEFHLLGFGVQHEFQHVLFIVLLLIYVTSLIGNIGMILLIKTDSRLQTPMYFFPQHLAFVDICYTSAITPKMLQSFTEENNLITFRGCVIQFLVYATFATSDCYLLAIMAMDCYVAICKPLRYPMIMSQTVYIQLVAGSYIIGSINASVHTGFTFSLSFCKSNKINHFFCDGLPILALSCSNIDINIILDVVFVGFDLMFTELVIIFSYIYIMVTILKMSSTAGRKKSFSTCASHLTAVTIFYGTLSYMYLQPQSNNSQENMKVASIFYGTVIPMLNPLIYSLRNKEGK
How it was run: as §1

O5AL1 [1] = system: O5AL1
How it was run: as §1

O5AL1 [2] = system: O5AL1; remark: listed apart in the source
How it was run: as §1

Measured: odorant receptor agonist call

CC1COCc2cc3c(cc21)C(C)(C)C(C)C3(C)C (stereo not drawn)
active: O52R1 | O5AC2 | O5AK2 | O5AK3
inactive: O52W1 | O56A3 | O56B1 | O56B4

O=CCc1ccccc1
not listed: O5AL1 [1] | O5AL1 [2]
inactive: all other assays above

C=C(C)C1CCC2=CC(=O)CC(C)C2(C)C1 (stereo not drawn)
active: O52R1 | O52W1

CCCCCCCC=O
not listed: O5AL1 [1] | O5AL1 [2]
inactive: all other assays above

CC(C)=CCCC(C)=CC=O
active: O52W1
not listed: O5AL1 [1] | O5AL1 [2]
inactive: all other assays above

C=CCc1ccc(OC)c(OC)c1
not listed: O5AL1 [1] | O5AL1 [2]
inactive: all other assays above

CC(C)CC(=O)O
not listed: O5AL1 [1] | O5AL1 [2]
inactive: all other assays above

CC(C)(O)CCCC1=CCC(C=O)CC1 (stereo not drawn)
inactive: O52R1 | O52W1

CC(C)CCC(=O)O
not listed: O5AL1 [1] | O5AL1 [2]
inactive: all other assays above

CCCCCC(=O)O
not listed: O5AL1 [1] | O5AL1 [2]
inactive: all other assays above

O=C1CCCCCCCCCCCC(=O)OCCO1
active: O52R1
not listed: O5AL1 [1] | O5AL1 [2]
inactive: all other assays above

CCCCCCCOC(C)=O
not listed: O5AL1 [1] | O5AL1 [2]
inactive: all other assays above

COc1cc(C=O)ccc1O
not listed: O5AL1 [1] | O5AL1 [2]
inactive: all other assays above

COC(=O)c1ccccc1O
not listed: O5AL1 [1] | O5AL1 [2]
inactive: all other assays above

C=CCSCC=C
not listed: O5AL1 [1] | O5AL1 [2]
inactive: all other assays above

CC=Cc1ccc(O)c(OC)c1
active: O52R1 | O52W1
not listed: O5AL1 [1] | O5AL1 [2]
inactive: all other assays above

C=CCc1ccc(OC(C)=O)c(OC)c1
active: O52R1
not listed: O5AL1 [1] | O5AL1 [2]
inactive: all other assays above

CCCCO
not listed: O5AL1 [1] | O5AL1 [2]
inactive: all other assays above

CC12C=CCC1C1CCC3=CC(=O)CCC3(C)C1CC2 (stereo not drawn)
not listed: O5AL1 [1] | O5AL1 [2]
inactive: all other assays above

COc1cc(C)ccc1O
not listed: O5AL1 [1] | O5AL1 [2]
inactive: all other assays above

c1ccc(Oc2ccccc2)cc1
not listed: O5AL1 [1] | O5AL1 [2]
inactive: all other assays above

CCCCCCOC(=O)CCC
not listed: O5AL1 [1] | O5AL1 [2]
inactive: all other assays above

CC12CCC(C1)C(C)(C)C2=O (stereo not drawn)
not listed: O5AL1 [1] | O5AL1 [2]
inactive: all other assays above

COc1ccccc1O
not listed: O5AL1 [1] | O5AL1 [2]
inactive: all other assays above

CC12CCC(CC1)C(C)(C)O2
not listed: O5AL1 [1] | O5AL1 [2]
inactive: all other assays above

O=C1CCCCCCCCCCCCCCO1
not listed: O5AL1 [1] | O5AL1 [2]
inactive: all other assays above

CCCCCCCCCC=O
not listed: O5AL1 [1] | O5AL1 [2]
inactive: all other assays above

CC12C=CCC1C1CCC3CC(=O)CCC3(C)C1CC2 (stereo not drawn)
active: O56A3 | O56B1 | O56B4
not listed: O5AL1 [1] | O5AL1 [2]
inactive: all other assays above

CCCCCCCCCCC=O
active: O52W1
not listed: O5AL1 [1] | O5AL1 [2]
inactive: all other assays above

CCC=CCCO
not listed: O5AL1 [1] | O5AL1 [2]
inactive: all other assays above

CC1CCC(C(C)C)C(O)C1 (stereo not drawn)
not listed: O5AL1 [1] | O5AL1 [2]
inactive: all other assays above

CC(=O)OC1CC2CCC1(C)C2(C)C (stereo not drawn)
active: O56A3
not listed: O5AL1 [1] | O5AL1 [2]
inactive: all other assays above

CCCCCCCCOC(C)=O
not listed: O5AL1 [1] | O5AL1 [2]
inactive: all other assays above

CCCCCC(C)=O
inactive: O56A3 | O56B1 | O56B4 | O5AC2 | O5AK2 | O5AK3

CC1=CCC(C(C)(C)O)CC1 (stereo not drawn)
not listed: O5AL1 [1] | O5AL1 [2]
inactive: all other assays above

C=CC(C)(O)CCC=C(C)C (stereo not drawn)
not listed: O5AL1 [1] | O5AL1 [2]
inactive: all other assays above

CC1=NC(C)SC1C (stereo not drawn)
inactive: O56A3 | O56B1 | O56B4 | O5AC2 | O5AK2 | O5AK3

CCCCCCCC=CC=O
not listed: O5AL1 [1] | O5AL1 [2]
inactive: all other assays above

CC(=O)c1ccccc1
inactive: O56A3 | O56B1 | O56B4 | O5AC2 | O5AK2 | O5AK3

CC(C)C(=O)O
not listed: O5AL1 [1] | O5AL1 [2]
inactive: all other assays above

CC(=O)C(C)=O
not listed: O5AL1 [1] | O5AL1 [2]
inactive: all other assays above

c1cnccn1
not listed: O5AL1 [1] | O5AL1 [2]
inactive: all other assays above

O=C1CCCCC1
inactive: O56A3 | O56B1 | O56B4 | O5AC2 | O5AK2 | O5AK3

CC(C)C=O
active: O56A3
not listed: O5AL1 [1] | O5AL1 [2]
inactive: all other assays above

CC(=O)OC(C)(C)C1CC=C(C)CC1 (stereo not drawn)
not listed: O5AL1 [1] | O5AL1 [2]
inactive: all other assays above

CCC1(O)C2(C)CCC(C2)C1(C)C (stereo not drawn)
not listed: O5AL1 [1] | O5AL1 [2]
inactive: all other assays above

CCCC(=O)O
active: O5AL1 [1]
inactive: all other assays above

CC(C)(C)c1ccc(CCC=O)cc1
not listed: O5AL1 [1] | O5AL1 [2]
inactive: all other assays above

CC(=O)OCC=C(C)CCC=C(C)C
active: O52W1 | O56B1
not listed: O5AL1 [1] | O5AL1 [2]
inactive: all other assays above

COC(=O)c1ccccc1
inactive: O56A3 | O56B1 | O56B4 | O5AC2 | O5AK2 | O5AK3

CCCCCOC(C)=O
not listed: O5AL1 [1] | O5AL1 [2]
inactive: all other assays above
